Laboratory results published in PubChem BioAssay AID1347076 (National Center for Advancing Translational Sciences (NCATS), 2019).
Values joined by “and” are separate entries in the source; they are usually repeats but may differ in a detail not shown here. Equal entries are not always repeated. Out of some 400,000 compounds screened, about 13,000 (3.2%) were called active. Inconclusive results, whose numbers are uncertain, are shown with a selection of clear calls. Calls follow the shape of the dose curve; as a rule, active = well fitted cell-killing curve with a large enough effect; inconclusive = small, poorly fitted or top-dose-only effect, or effect the other way; inactive = flat fitted curve, though single readings scatter. Where the call is inconclusive, the potency comes from a doubtful curve fit.

assay: qHTS assay for MDR1-selective chemotherapeutics: Primary screen using the drug-selected MDR subline cells KB-V1; conditions: KB-V1 MDR cells viability, CellTiter-Glo, 72 h; activity change, negative = cytotoxicity: at 46.1 µM (top of the series); also: nearly all actives have a fitted effect of over 60% in size
Summary of the method: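 qHTS viability screen in drug-selected KB-V1 MDR cells: 72 h compound treatment at 37 degrees C, ATP luminescence end point.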
% is scaled to controls: 0 for no effect and ±100 for the full control effect; potency is read from the fitted curve at half-maximal effect.

SMILES	Potency	activity change, negative = cytotoxicity
O=[N+]([O-])c1nn(-c2ccccc2)n(O)c1=NCCc1ccccc1	inconclusive: 18.4 µM [cytotoxic, single point]	–
CCOc1ccc(/C=N/NC(=O)c2nnn(-c3nonc3N)c2CN2CCC(C)CC2)cc1	inactive	–
CCc1ccccc1NC(=O)Nc1cccn(Cc2ccc(F)cc2)c1=O	inconclusive: 14.6 µM [cytotoxic, partial curve]	–
Cc1nc(-c2ccc(C(=O)Nc3ccc(F)cc3)cc2)cs1	inconclusive: 4.61 µM [cytotoxic, partial curve]	–
Cc1cc(NC(c2ccc(Cl)cc2)c2ccc3cccnc3c2O)no1 (stereo unspecified)	inconclusive: 0.731 µM [cytotoxic, full curve, poor fit]	–
Cc1ccc(CNCC(=O)Nc2cccc(S(=O)(=O)NC3=NCCCCC3)c2)cc1	–	inconclusive: 11.2%
O=C(O)C12C3CCC(O3)C1(C(=O)O)C1CCC2O1 (stereo unspecified)	inconclusive: 32.6 µM [cytotoxic, single point]	–
CCOc1ccc(CNC(=O)c2cc3ccccn3n2)cc1	inactive	–
CCC1C/C(=C/c2cccs2)C(=O)/C(=C/c2cccs2)C1 (stereo unspecified)	inconclusive: 0.0116 µM [cytotoxic, full curve, poor fit]	–
COc1ccc(/C=C/C(=O)Nc2ccc(-n3nncc3-c3ccccc3)cc2)cc1OC	inconclusive: 20.6 µM [cytotoxic, single point]	–
Cc1ccc(-n2c(-c3ccccc3)c[n+]3c2CCC3)cc1	inconclusive: 11.6 µM [rising, partial curve]	–
O=c1cc(/C=C/c2cccs2)[nH]c2ccccc12	inconclusive: 29.1 µM [cytotoxic, single point]	–
Cn1c(=O)c2c(ncn2CC(=O)N(Cc2ccccc2)c2ccccn2)n(C)c1=O	inconclusive: 23.1 µM [cytotoxic, single point]	–
Cc1ccc(-c2nnc(SCC(=O)N/N=C/c3ccccc3C(=O)O)n2C2CCCCC2)cc1	inconclusive: 18.4 µM [rising, single point]	–
Cc1nc(SCCc2nc3ccccc3[nH]2)c2oc3ccccc3c2n1	inactive	–
CC(C)c1cc(=O)n2[nH]c(SCc3ccccc3)nc2n1	–	inconclusive: 34.9%
CC1CC(C)C(=NNC(N)=O)C(C(O)CC2CCC(=O)NC2=O)C1 (stereo unspecified)	inconclusive: 0.92 µM [cytotoxic, full curve, poor fit]	–
O=C(CC1NCCNC1=O)Nc1cc(Cl)cc(Cl)c1 (stereo unspecified)	inconclusive: 4.11 µM [rising, single point]	–
CCN1CCN(C(=O)c2cc(COc3ccc4ncccc4c3)on2)CC1	active: 16.4 µM	–
C=C[C@@H]1c2cc(C)ccc2N(S(=O)(=O)c2ccc(C)cc2)[C@H](c2ccc(OC(C)=O)cc2)C1(C#N)C#N	active: 20.6 µM and active: 7.31 µM	–
c1ccc(-c2cccc(-c3ccccn3)n2)nc1	active: 1.84 µM	–
CN(Cc1ccc2ccccc2c1)C(=O)c1ccc(C(F)(F)F)cc1	inconclusive: 29.1 µM [cytotoxic, single point]	–
COCCCNCCOc1ccc(C(C)(C)c2ccccc2)cc1	inactive	–
C#CCN(C(=O)c1ccc(OC2CCN(Cc3ccccn3)CC2)cc1)C1CCCCC1	inactive	–

SMILES	Potency	activity change, negative = cytotoxicity
COc1ccc(OCCCC(=O)NCCc2ccc(OC)c(OC)c2)cc1	inconclusive: 23.1 µM [cytotoxic, single point]	–
COC(=O)c1c(Oc2ccc(Br)cc2)nnc(-c2ccccc2)c1-c1ccccc1	inconclusive: 9.2 µM [cytotoxic, partial curve, poor fit]	–
CSc1nnc(CSCc2ccc(Cl)cc2Cl)n1-c1ccccc1	inconclusive: 11.2 µM [cytotoxic, single point]	–
Cc1ccc2c(c1)CCCN2C(=O)c1ccoc1C	inconclusive: 23.1 µM [cytotoxic, single point]	–
Cc1ccccc1Nc1scc(-c2ccc(Cl)cc2)[n+]1-c1ccccc1C	inactive	–
O=C(CN1C(=O)C(=O)N(Cc2ccco2)C1=O)Nc1ccc(F)c(F)c1F	inconclusive: 2.91 µM [rising, full curve, poor fit]	–
COc1ccc(CCN2C(=S)N(C)C(=O)C2CC(=O)Nc2ccc(F)cc2)cc1 (stereo unspecified)	inconclusive: 18.4 µM [cytotoxic, single point]	–
COC(=O)[C@H](Cc1ccccc1)N1C/C=C\COc2c(Cl)cc(Cl)cc2S1(=O)=O	inactive	–
CCOc1cc(C#N)c(NC(=O)c2ccco2)cc1OCC	inconclusive: 3.66 µM [cytotoxic, full curve]	–
CCOC(=O)C1=C(C)Nc2ccccc2N=C1NC(=O)Cc1ccc(Cl)c(Cl)c1	inconclusive: 10.3 µM [cytotoxic, partial curve, poor fit]	–
Fc1ccc(CN2CCN(c3ncnc4scc(-c5ccccc5)c34)CC2)cc1	inactive	–
O=C(Nc1ccc2ncccc2c1)c1cccc(Br)c1	inactive	–
c1ccc(CNc2nc(NCCc3ccncc3)c3sccc3n2)cc1	inconclusive: 18.4 µM [cytotoxic, single point]	–
COc1ccc2nc(C)cc(N3CC(C)OC(C)C3)c2c1 (stereo unspecified)	inconclusive: 5.8 µM [cytotoxic, partial curve, poor fit]	–
O=C1C[C@@H](c2ccc(O[C@@H]3O[C@H](CO)[C@@H](O)[C@H](O)[C@H]3O)cc2)Oc2cc(O)ccc21	inconclusive: 9.2 µM [rising, partial curve]	–
CCC/C=N/Nc1nc2ccccc2s1	inconclusive: 29.1 µM [cytotoxic, single point]	–
COc1ccccc1-c1c(C)nn2c(N3CCN(c4ccc(F)cc4)CC3)cc(C)nc12	inactive	–
CC(C)NC(=O)C1(C)CCN1C(=O)c1ccc(F)c(Cl)c1 (stereo unspecified)	inactive	–
COC(=O)c1ccccc1NC(=O)CN1CCC(NC(=O)c2ccc(C)cc2)CC1	inconclusive: 10.3 µM [cytotoxic, partial curve, poor fit]	–
CN(C)c1ccc2nc3c(=O)[nH]c(=O)nc-3n(CC(O)C(O)C(O)CO)c2c1 (stereo unspecified)	inactive	–
Fc1ccc(Oc2cnns2)cc1	inconclusive: 18.4 µM [rising, partial curve]	–
NS(=O)(=O)c1ccc(CNC(=O)CNC(=O)c2ccc(F)cc2)cc1	inconclusive: 29.1 µM [rising, single point]	–
N#CC1=C(SCC(=O)c2ccc(Br)cc2)NC2=C(C(=O)CCC2)C1c1ccco1 (stereo unspecified)	active: 20.6 µM	–
CC(CO)NS(=O)(=O)c1cccc(Cl)c1F (stereo unspecified)	inactive	–

SMILES	Potency	activity change, negative = cytotoxicity
CCOc1ccc2nc(NC(=O)CSc3ccc(Cl)cc3)sc2c1	inconclusive: 20.6 µM [cytotoxic, partial curve]	–
CC(C)(O)C#Cc1ccc(N2C(c3ccsc3)=Cc3ccc(F)cc3C2c2c[nH]c3ccccc23)cc1 (stereo unspecified)	inconclusive: 29.1 µM [cytotoxic, single point]	–
CCCCN(c1ccccc1)c1ncnc2c1cnn2-c1cccc(C)c1	inactive	–
CC(=O)Nc1ccc2nc(SCCOc3ccccc3Cl)sc2c1	inactive	–
COc1ccccc1N1CCN(C(=O)CCCn2nc(C)c([N+](=O)[O-])c2C)CC1	inconclusive: 0.146 µM [cytotoxic, full curve]	–
Cc1cccc(N2CCN(C(=O)CCCSc3nc4ccccc4[nH]3)CC2)c1C	active: 5.8 µM	–
COc1ccc([C@H]2CC(=O)C=C(c3ccc(CO)cc3)C2)cc1	inconclusive: 2.91 µM [cytotoxic, full curve]	–
Cc1ccc(OCc2nc3ccccc3n2C(C)C(=O)Nc2c(C)cccc2C)cc1 (stereo unspecified)	inconclusive: 5.8 µM [cytotoxic, partial curve]	–
CCOC(=O)c1c(C)[nH]c(C(=O)N(C)CC(=O)Nc2ccc(OCC)c(OCC)c2)c1C	inactive	–
COC(=O)c1cc2sccc2n1Cc1nc(-c2ccc(C)cc2)oc1C	inactive	–
O=C(Nc1ccc(Cl)cc1)OCCn1nnnc1C(c1ccccc1Cl)N1CCOCC1 (stereo unspecified)	inconclusive: 29.1 µM [cytotoxic, single point]	–
O=C(c1ccc(-c2ccccc2)cc1)N1CCN(C(=O)c2ccco2)CC1	inconclusive: 23.1 µM [cytotoxic, single point]	–
COc1ccc(OC)c(C(=O)NC(CC(N)=O)c2ccc(N3CCC(Cc4ccccc4)CC3)c([N+](=O)[O-])c2)c1 (stereo unspecified)	inactive	–
O=C(CC1SC(N2CCCC2)=NC1=O)Nc1ccc(C(=O)NCc2ccc(F)cc2)cc1 (stereo unspecified)	inactive	–
CCOCCCNC(=S)N1CCN(c2nc(-c3ccc(F)cc3)cs2)CC1	inconclusive: 20.6 µM [cytotoxic, single point]	–
CCCOc1c(Cl)cc(C(=O)Nc2ccc3c(c2)OCO3)cc1OCC	inconclusive: 25.1 µM [cytotoxic, single point]	–
Cn1c(=O)c2c(SCC(=O)N3CCCCC3)nc(-c3ccccc3F)nc2n(C)c1=O	inconclusive: 9.2 µM [cytotoxic, partial curve, poor fit]	–
Cc1cccc(NC(=O)[C@H](Cc2ccccc2)NC(=O)OCc2ccccc2)c1	inconclusive: 11.6 µM [cytotoxic, partial curve]	–
CN(C)NC(=S)NC1CC2CCC1C2 (stereo unspecified)	inactive	–
CCN(CC)c1ncnc2c1ncn2[C@H]1CN(Cc2ccccc2)C[C@@H](COC(C)=O)O1	inactive	–
COc1ccc(NS(=O)(=O)c2ccc(C(=O)N3CCC(C)CC3)cc2)cc1	inactive	–
COc1cccc(C2=NN(C(=O)c3cccs3)C(O)(C(F)(F)F)C2)c1 (stereo unspecified)	inconclusive: 18.4 µM [cytotoxic, single point]	–
O=C(NC(=S)NCc1nc2ccccc2[nH]1)c1ccc(F)cc1	inconclusive: 29.1 µM [cytotoxic, single point]	–

Random excerpt: three entries already listed
SMILES	Potency	activity change, negative = cytotoxicity
CC(C)(O)C#Cc1ccc(N2C(c3ccsc3)=Cc3ccc(F)cc3C2c2c[nH]c3ccccc23)cc1 (stereo unspecified)	inconclusive: 29.1 µM [cytotoxic, single point]	–
CCOC(=O)c1c(C)[nH]c(C(=O)N(C)CC(=O)Nc2ccc(OCC)c(OCC)c2)c1C	inactive	–
CCOCCCNC(=S)N1CCN(c2nc(-c3ccc(F)cc3)cs2)CC1	inconclusive: 20.6 µM [cytotoxic, single point]	–
